Assay results published in patent US20190381088.

Chains of the proteins cited; added tags and fusions are not shown. Residues count along the entry.
UniProt Q16552, 24-155: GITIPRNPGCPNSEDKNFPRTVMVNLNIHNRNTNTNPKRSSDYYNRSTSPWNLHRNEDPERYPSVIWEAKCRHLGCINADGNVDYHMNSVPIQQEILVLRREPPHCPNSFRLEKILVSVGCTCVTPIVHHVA

Target: IL-17 (human IL-17) (Homo sapiens) (UniProt Q16552)
Assay: activity assay
Conditions: rest 2'-OH RNA, 3' idT (stated for in vivo tests), 5' symmetrical brancher with spacer + ssH amino linker + 2 x 40 kDa branched PEG (80 kDa total), in vivo mouse air pouch model, human IL-17 0.5 ug, IL-6 significantly reduced, 0.3-3 mg/kg i.p.

Measured: functional effect of the aptamer

GGGUAGCCGGAGGAGTCAGTAAUCGGUACCC
active: 2'-OMe at 1-4,7,8,10,13,14,23-26,28-31, 2'-F at 11,17,18,27, PS at g6, DNA at A5,G9,T16,T20 | 2'-OMe at 1-4,7,8,10,13,14,23-26,28, 2'-F at 11,17,18,27, PS at g6, DNA at A5,G9,T16,T20,C29-C31 | 2'-OMe at 1-5,7,8,10,11,13,14,17,21,23-31, 2'-F at 18, PS at g6,g15,g19, DNA at G9,T16,T20
